Measurements reported in PubChem BioAssay AID1159578 (Peter MacCallum Cancer Centre, 2015).
Here is an unselected part of about 18,000 reagents tested. Over the whole deposit, about 1,030 (5.7%) got an active call. 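Inactive calls also include pools with fewer than 3300 nuclei, whose migration was not assessed.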 Raw values are not corrected between plates. Further read-outs or replicates are left out here.

Assay: 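siRNA pools altering how lymphatic endothelial cells close a scratch wound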 (primary screen)
Cells: human lymphatic endothelial cells
Reagent: siRNA pool against human genes, 40 nM
Duration: 48 h after transfection
Measurement: 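High-content imaging of dye-stained cells in a scratch assay measures filled wound area and nuclei per well; duplicate means given as ratio to mock and robust z-score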
Reading the numbers: migration robust z-score: higher = faster migration into the scratch; nuclei per well: higher = more cells in the well
Hit rule: 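Migration changed when robust z exceeds 2 or falls below -2 and mean nuclei number is at least 3300; otherwise not called changed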
Calls: active = migration changed; inactive = no migration change, or too few cells

migration robust z-score	migration class with cell-count check	nuclei per well, duplicate mean	activity call	gene
0.02	migration z between -2 and 2; enough cells	6028	inactive	CD209
0.32	migration z between -2 and 2; enough cells	5892	inactive	GOLGA4
0.42	migration z between -2 and 2; enough cells	6380	inactive	ZKSCAN5
-0.48	migration z between -2 and 2; enough cells	6461	inactive	OR2T27
-0.86	migration z between -2 and 2; enough cells	4630	inactive	AVPR1A
-0.24	migration z between -2 and 2; enough cells	4553	inactive	CDC5L
0.78	migration z between -2 and 2; enough cells	6268	inactive	ZC3H3
-0.69	migration z between -2 and 2; enough cells	6225	inactive	OLFML3
-2.92	migration z below -2; enough cells	5178	active	MAGEA10
-1.04	migration z between -2 and 2; enough cells	6328	inactive	KCNK7
1.36	migration z between -2 and 2; enough cells	6440	inactive	SLC17A2
0.29	migration z between -2 and 2; enough cells	4728	inactive	TNNC1
-0.43	migration z between -2 and 2; enough cells	5346	inactive	BEX2
0.98	migration z between -2 and 2; enough cells	7380	inactive	FRMD6
-0.45	migration z between -2 and 2; enough cells	6802	inactive	SPMAP1
-0.94	migration z between -2 and 2; enough cells	5439	inactive	TXLNA
1.25	migration z between -2 and 2; enough cells	5440	inactive	RASIP1
-0.9	migration z between -2 and 2; enough cells	4277	inactive	STX6
-1.02	migration z between -2 and 2; enough cells	5177	inactive	IGFBP2
-0.06	migration z between -2 and 2; enough cells	4835	inactive	TAS2R39
-0.28	migration z between -2 and 2; enough cells	5556	inactive	DSCR4
-1.25	migration z between -2 and 2; enough cells	5362	inactive	GRIK4
0.41	migration z between -2 and 2; enough cells	5568	inactive	ZNF567
0.31	migration z between -2 and 2; enough cells	5758	inactive	HEATR9
-3.45	migration z below -2; enough cells	4194	active	CHST8
0	migration z between -2 and 2; enough cells	5736	inactive	NXPH4
-0.48	migration z between -2 and 2; enough cells	5494	inactive	CPNE6
0.02	migration z between -2 and 2; enough cells	6628	inactive	PELI3
0.16	migration z between -2 and 2; enough cells	5704	inactive	SORL1
-0.86	migration z between -2 and 2; enough cells	6702	inactive	ENOPH1
-0.63	migration z between -2 and 2; enough cells	6368	inactive	CD55
0.56	migration z between -2 and 2; enough cells	3578	inactive	FITM1
1.19	migration z between -2 and 2; enough cells	4806	inactive	ZNF225
-0.56	migration z between -2 and 2; enough cells	4858	inactive	ZNF804A
0.52	migration z between -2 and 2; enough cells	6382	inactive	OR4C16
0.38	migration z between -2 and 2; enough cells	5830	inactive	TFAP2B
1.12	migration z between -2 and 2; enough cells	6458	inactive	LRRC66
-0.64	migration z between -2 and 2; enough cells	4248	inactive	IL15RA
1.28	migration z between -2 and 2; enough cells	5708	inactive	KRTAP13-3
